Results taken from the supplement of paper PMC3334620.
In all, about 33,000 sequences were measured (“E-score (-0.5 to 0.5)”: median about -0.0034, highest 2% from about 0.25 on). Some of the results follow.

molecular target: T1, Yap3 (UniProt P38749); experiment: PBM E-score (8-mer binding enrichment) (E-score (-0.5 to 0.5)); higher = stronger / more preferred TF binding; details: protein concentration: 100 nM; construct: GST-full length
T1 sequence: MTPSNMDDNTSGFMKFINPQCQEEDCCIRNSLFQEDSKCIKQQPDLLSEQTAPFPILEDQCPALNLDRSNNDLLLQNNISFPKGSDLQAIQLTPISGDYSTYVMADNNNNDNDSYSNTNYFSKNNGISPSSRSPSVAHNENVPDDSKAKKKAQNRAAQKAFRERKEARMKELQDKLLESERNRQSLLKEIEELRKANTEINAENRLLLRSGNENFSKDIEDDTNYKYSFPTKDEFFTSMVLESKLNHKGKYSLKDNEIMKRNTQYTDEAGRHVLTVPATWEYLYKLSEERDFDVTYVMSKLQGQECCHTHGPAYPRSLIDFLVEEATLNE
Experimental: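 Universal 'all 10-mer' protein binding microarrays (Agilent AMADID 015681) probed with GST-tagged S. cerevisiae TFs (full-length or DBD) made by in vitro transcription/translation (PURExpress), about 100-200 nM. Bound TF was detected with fluorescent anti-GST. Each ungapped 8-mer (which stands for itself and its reverse complement) is scored by the PBM enrichment score (E-score), a modified Wilcoxon-Mann-Whitney statistic from -0.5 to +0.5, computed with the Universal PBM Analysis Suite. Scale: above 0.35 generally sequence-specific binding.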

Row | Sequence | PBM E-score
1 | GGGGGTAA | -0.193
2 | AGACAAGC | 0.00433
3 | CTTCGGAC | -0.027
4 | TGATACCA | 0.00172
5 | CTGACGTC | 0.0626
6 | ATCGCCCA | -0.134
7 | AAATCGAC | 0.181
8 | GAGAGATC | 0.0432
9 | AATTGGGT | 0.331
10 | TCGATGCA | -0.0467
11 | CGTAGCAC | -0.00594
12 | AAACGCTC | -0.104
13 | CCTCATAA | -0.00385
14 | AGTTGGTG | 0.033
15 | ACATGGCT | -0.0604
16 | ATGGATTA | -0.0177
17 | ATCATTGC | -0.00719
18 | GCGGCGAC | -0.0995
19 | ACAACCAC | 0.0359
20 | CCACCGGA | 0.104
21 | TCTGACCA | -0.0272
22 | CCTCGCAC | -0.133
23 | ACTCTGGG | -0.12
24 | AGCGCTCG | -0.154
25 | ACACGACA | 0.213

Row | Sequence | PBM E-score
26 | GTAGAGCA | -0.0569
27 | TCCGTAAA | 0.0294
28 | AGCCGGCG | -0.0864
29 | CTTCTCAC | 0.121
30 | CGACCCAG | -0.23
31 | CCCTCGGA | -0.111
32 | CAGGCCGA | -0.114
33 | ACAACGAT | 0.0459
34 | TGCAGCAA | 0.143
35 | GAAACGCC | -0.0431
36 | AGTTTCGG | 0.0851
37 | ATCGCTGC | 0.017
38 | ATGCAATG | -0.0833
39 | AGACAGGA | 0.0897
40 | CCGGGGGA | -0.287
41 | GAGGCATC | -0.206
42 | CCCTGTGC | -0.204
43 | GATGTTGA | 0.137
44 | CTTCCTTA | 0.0813
45 | CAAGCTGA | 0.109
46 | CTGATCTC | -0.0723
47 | CAAATCTC | 0.0919
48 | GCACAACC | -0.0856
49 | ATTATGGA | 0.108
50 | AAATGGGT | 0.122

Row | Sequence | PBM E-score
51 | CAGTTGCC | -0.181
52 | GGGGTTTA | -0.0968
53 | AAGGGGCA | -0.105
54 | ACCCTACT | -0.0662
55 | CCACCGCG | 0.0617
56 | TACGTCGA | 0.0252
57 | TACTCCGA | -0.0387
58 | CTAACATC | 0.0918
59 | ACAAGGCT | -0.157
60 | AATCGTCC | -0.0198
61 | CCAGTGAG | -0.0951
62 | CCTGTCCA | -0.14
63 | TCATGTCA | 0.0163
64 | CCAAGTCC | -0.242
65 | AAGGCGCC | -0.0909
66 | TAAAGCCA | 0.0954
67 | ATGAGCCC | -0.147
68 | GCGTTGGA | -0.102
69 | CCAGCCTC | -0.272
70 | CATTATAC | 0.163
71 | CTCATTCA | 0.0351
72 | CTTAAGAA | 0.138
73 | AAACGGAC | -0.155
74 | GAGCCTGC | -0.101
75 | GCCCGGAA | -0.0658

Row | Sequence | PBM E-score
76 | CAGAATAG | 0.0261
77 | ACGTCCTG | -0.136
78 | CTGGGATC | -0.245
79 | TTAGCTAA | 0.159
80 | ACTACAAA | 0.201
81 | ATGTCGAG | -0.00735
82 | GGTCGAGA | -0.121
83 | ATTGCGTG | -0.146
84 | ACGATCCG | -0.034
85 | ACCACAAG | -0.227
86 | CGGTCCGC | -0.174
87 | TCCTGAGA | -0.102
88 | AGAGGATC | -0.212
89 | CCCAAAAA | 0.0172
90 | TAATCGTA | 0.167
91 | AGTTCAAT | -0.0531
92 | CCAAGAAC | -0.0493
93 | CCGCCTAC | 0.00031
94 | ACCTAATG | -0.233
95 | GCACACAC | -0.0221
96 | GTCCACAA | -0.0537
97 | AAGTAATA | 0.158
98 | AACGTAAG | 0.0405
99 | CTTGCAGC | -0.15
100 | ATCTTTAC | 0.135

Row | Sequence | PBM E-score
101 | CAATACTG | 0.00538
102 | GATTCTGA | -0.081
103 | AACTGACT | 0.0319
104 | GCAAGCTA | -0.0808
105 | ATTAGATC | 0.0781
106 | CACCTACA | -0.058
107 | ATCGGATG | -0.0732
108 | GCGTACAC | 0.0362
109 | CACGGTCA | 0.0268
110 | AAGTCAGA | -0.0217
111 | AAGCTTGA | -0.0612
112 | AGCCGGCC | -0.0368
113 | ACCTACTC | 0.0226
114 | AGTATGTC | 0.135
115 | GCCCAAAC | -0.0764
116 | GAAATATC | 0.0879
117 | ATTGCGTC | 0.101
118 | CACCCAAC | -0.142
119 | AACTTATG | 0.145
120 | CGTAATTC | 0.296
121 | AAAGTCTT | 0.00865
122 | TTGAAAAA | 0.21
123 | AGAGAAGA | -0.0231
124 | CCCCCAGA | -0.402
125 | ACTCTACT | 0.0768

Row | Sequence | PBM E-score
126 | ACGACGAA | -0.00337
127 | ATAAGCTA | 0.0112
128 | CGCCAGTC | -0.219
129 | ACTTGCAG | -0.0406
130 | CTTAACCC | -0.255
131 | TCAACGAA | 0.107
132 | AGCGAAAA | 0.0302
133 | ATGGCCAG | 0.079
134 | ACCTTGCA | -0.106
135 | CCGTGATC | -0.055
136 | ACCAGCGG | -0.0505
137 | GTATGCCA | -0.158
138 | AACGCGGT | 0.0149
139 | CAATCTTA | 0.0401
140 | ACTTTCCC | 0.038
141 | CTTGTTTA | 0.0644
142 | AGGTAACT | 0.0241
143 | CCTCAAGA | -0.0418
144 | CCCTTTCC | -0.243
145 | ACCAACAA | 0.165
146 | AAAGAGAA | 0.0618
147 | TCAGGTAA | 0.119
148 | AAATGGAC | 0.128
149 | AGCAGTTC | -0.126
150 | CGTTATAA | 0.149

Random excerpt: 3 records from the list.
Row | Sequence | PBM E-score
132 | AGCGAAAA | 0.0302
141 | CTTGTTTA | 0.0644
139 | CAATCTTA | 0.0401

More results:

Row | Sequence | PBM E-score
151 | ATCAGCCA | -0.13
152 | TACGGGGA | -0.133
153 | AGGCCATC | -0.0393
154 | AGTCCCCA | -0.341
155 | ATCGCCGA | 0.0148
156 | TCTTATAA | 0.0935
157 | AAAAGGGT | 0.0298
158 | TCGGATAA | 0.143
159 | CTTCGCGA | -0.0504
160 | ATTAAAGC | 0.2
161 | TCACTCCA | 0.0118
162 | CAGCGCTC | -0.188
163 | CGCGTAAC | 0.014
164 | CGGTCAGA | -0.0863
165 | CAGCCTGG | -0.065
166 | ATATCGGA | 0.0801
167 | TACCCGTA | 0.0349
168 | CTCCTACC | -0.275
169 | CAAAAAGG | 0.0136
170 | AGTTGTTC | 0.104
171 | ATATCCGC | 0.114
172 | CTAATGTC | 0.124

From no. 84 to 89, copied from above:
Row | Sequence | PBM E-score
84 | ACGATCCG | -0.034
85 | ACCACAAG | -0.227
86 | CGGTCCGC | -0.174
87 | TCCTGAGA | -0.102
88 | AGAGGATC | -0.212
89 | CCCAAAAA | 0.0172
